Experiment in all cases: proximity labelling; BioID: HA-BirA-tagged TASOR variants in TASOR knockout cells, 50 μM biotin for 18 h, nuclei lysed, streptavidin beads, mass spectrometry; control: TASOR knockout cells with biotin but without BirA-tagged TASOR
Experiment [1] concerns the target T1, HA-BirA-TASOR, full-length (human), Q9UK61.
T1 chain: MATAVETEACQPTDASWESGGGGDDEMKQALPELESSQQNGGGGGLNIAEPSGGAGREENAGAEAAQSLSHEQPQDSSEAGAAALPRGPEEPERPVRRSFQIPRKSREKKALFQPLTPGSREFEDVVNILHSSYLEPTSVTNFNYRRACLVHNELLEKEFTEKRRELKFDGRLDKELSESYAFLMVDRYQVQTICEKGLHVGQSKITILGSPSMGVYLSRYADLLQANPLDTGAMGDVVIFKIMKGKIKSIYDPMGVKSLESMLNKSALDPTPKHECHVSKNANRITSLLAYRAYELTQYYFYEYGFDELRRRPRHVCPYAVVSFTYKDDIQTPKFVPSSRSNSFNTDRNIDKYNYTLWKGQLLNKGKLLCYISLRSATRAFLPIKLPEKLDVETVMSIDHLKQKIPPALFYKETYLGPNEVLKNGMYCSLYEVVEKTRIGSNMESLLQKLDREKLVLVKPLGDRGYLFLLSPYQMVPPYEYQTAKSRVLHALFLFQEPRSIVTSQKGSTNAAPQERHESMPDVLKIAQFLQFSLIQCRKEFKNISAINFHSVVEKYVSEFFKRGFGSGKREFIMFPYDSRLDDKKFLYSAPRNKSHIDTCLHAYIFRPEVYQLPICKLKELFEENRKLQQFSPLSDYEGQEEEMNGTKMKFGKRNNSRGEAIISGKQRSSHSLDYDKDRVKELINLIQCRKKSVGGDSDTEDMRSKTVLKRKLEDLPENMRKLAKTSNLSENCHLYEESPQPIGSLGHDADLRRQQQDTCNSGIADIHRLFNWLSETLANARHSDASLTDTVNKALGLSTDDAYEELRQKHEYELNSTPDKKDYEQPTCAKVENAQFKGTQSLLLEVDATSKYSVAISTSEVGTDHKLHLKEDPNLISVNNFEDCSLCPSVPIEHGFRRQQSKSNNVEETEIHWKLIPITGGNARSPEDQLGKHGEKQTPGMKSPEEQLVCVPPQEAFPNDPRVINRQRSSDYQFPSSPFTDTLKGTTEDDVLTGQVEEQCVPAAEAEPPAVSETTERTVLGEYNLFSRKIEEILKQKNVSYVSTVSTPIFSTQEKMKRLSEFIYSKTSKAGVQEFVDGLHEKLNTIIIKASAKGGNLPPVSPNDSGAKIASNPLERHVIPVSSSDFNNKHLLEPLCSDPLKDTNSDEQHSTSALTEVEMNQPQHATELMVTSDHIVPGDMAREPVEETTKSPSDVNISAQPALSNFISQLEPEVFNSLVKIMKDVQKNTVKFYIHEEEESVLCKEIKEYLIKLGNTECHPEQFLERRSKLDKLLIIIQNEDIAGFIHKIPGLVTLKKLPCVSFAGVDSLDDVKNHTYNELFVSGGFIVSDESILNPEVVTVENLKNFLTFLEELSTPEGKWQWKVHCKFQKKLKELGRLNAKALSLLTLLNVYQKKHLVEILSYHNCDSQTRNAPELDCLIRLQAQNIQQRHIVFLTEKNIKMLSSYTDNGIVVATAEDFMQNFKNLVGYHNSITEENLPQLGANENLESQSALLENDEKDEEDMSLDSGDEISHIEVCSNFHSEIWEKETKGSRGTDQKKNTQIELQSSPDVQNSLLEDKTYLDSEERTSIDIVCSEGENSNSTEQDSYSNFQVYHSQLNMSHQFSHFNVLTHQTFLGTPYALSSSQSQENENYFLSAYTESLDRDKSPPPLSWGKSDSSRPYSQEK
The following applies: remark: other sources report otherwise.

Experiment [2] deals with HA-BirA-TASOR, full-length (human) (UniProt Q9UK61).
In experiment [3] the target is HA-BirA-TASOR ΔPARP (human).
The target in experiment [4] is HA-BirA-TASOR Y305A (human) (UniProt Q9UK61).

Results are given in words; binding and its absence hold for the method and conditions named. In cells and extracts the contact can be indirect. A yes stands for co-enrichment or nearness to the bait. Other partners may have been found. For some of these results: No binding means not detected with the bait. For some of these results: Sequences can lack the tags named with a protein.

Consider three molecules from article PMC7532188.

B1: MORC2, Q9Y6X9 1-1032 (protein)
chain: MAFTNYSSLNRAQLTFEYLHTNSTTHEFLFGALAELVDNARDADATRIDIYAERREDLRGGFMLCFLDDGAGMDPSDAASVIQFGKSAKRTPESTQIGQYGNGLKSGSMRIGKDFILFTKKEDTMTCLFLSRTFHEEEGIDEVIVPLPTWNARTREPVTDNVEKFAIETELIYKYSPFRTEEEVMTQFMKIPGDSGTLVIIFNLKLMDNGEPELDIISNPRDIQMAETSPEGTKPERRSFRAYAAVLYIDPRMRIFIHGHKVQTKRLSCCLYKPRMYKYTSSRFKTRAEQEVKKAEHVARIAEEKAREAESKARTLEVRLGGDLTRDSRVMLRQVQNRAITLRREADVKKRIKEAKQRALKEPKELNFVFGVNIEHRDLDGMFIYNCSRLIKMYEKVGPQLEGGMACGGVVGVVDVPYLVLEPTHNKQDFADAKEYRHLLRAMGEHLAQYWKDIAIAQRGIIKFWDEFGYLSANWNQPPSSELRYKRRRAMEIPTTIQCDLCLKWRTLPFQLSSVEKDYPDTWVCSMNPDPEQDRCEASEQKQKVPLGTFRKDMKTQEEKQKQLTEKIRQQQEKLEALQKTTPIRSQADLKKLPLEVTTRPSTEEPVRRPQRPRSPPLPAVIRNAPSRPPSLPTPRPASQPRKAPVISSTPKLPALAAREEASTSRLLQPPEAPRKPANTLVKTASRPAPLVQQLSPSLLPNSKSPREVPSPKVIKTPVVKKTESPIKLSPATPSRKRSVAVSDEEEVEEEAERRKERCKRGRFVVKEEKKDSNELSDSAGEEDSADLKRAQKDKGLHVEVRVNREWYTGRVTAVEVGKHVVRWKVKFDYVPTDTTPRDRWVEKGSEDVRLMKPPSPEHQSLDTQQEGGEEEVGPVAQQAIAVAEPSTSECLRIEPDTTALSTNHETIDLLVQILRNCLRYFLPPSFPISKKQLSAMNSDELISFPLKEYFKQYEVGLQNLCNSYQSRADSRAKASEESLRTSERKLRETEEKLQKLRTNIVALLQKVQEDIDINTDDELDAYIEDLITKGD
For B1, the binding entry in experiment [1] is “no binding”.

B2: PPP1R10 (protein, UniProt Q96QC0 1-940)
chain: MGSGPIDPKELLKGLDSFLNRDGEVKSVDGISKIFSLMKEARKMVSRCTYLNILLQTRSPEILVKFIDVGGYKLLNNWLTYSKTTNNIPLLQQILLTLQHLPLTVDHLKQNNTAKLVKQLSKSSEDEELRKLASVLVSDWMAVIRSQSSTQPAEKDKKKRKDEGKSRTTLPERPLTEVKAETRAEEAPEKKREKPKSLRTTAPSHAKFRSTGLELETPSLVPVKKNASTVVVSDKYNLKPIPLKRQSNVAAPGDATPPAEKKYKPLNTTPNATKEIKVKIIPPQPMEGLGFLDALNSAPVPGIKIKKKKKVLSPTAAKPSPFEGKTSTEPSTAKPSSPEPAPPSEAMDADRPGTPVPPVEVPELMDTASLEPGALDAKPVESPGDPNQLTRKGRKRKSVTWPEEGKLREYFYFELDETERVNVNKIKDFGEAAKREILSDRHAFETARRLSHDNMEEKVPWVCPRPLVLPSPLVTPGSNSQERYIQAEREKGILQELFLNKESPHEPDPEPYEPIPPKLIPLDEECSMDETPYVETLEPGGSGGSPDGAGGSKLPPVLANLMGSMGAGKGPQGPGGGGINVQEILTSIMGSPNSHPSEELLKQPDYSDKIKQMLVPHGLLGPGPIANGFPPGGPGGPKGMQHFPPGPGGPMPGPHGGPGGPVGPRLLGPPPPPRGGDPFWDGPGDPMRGGPMRGGPGPGPGPYHRGRGGRGGNEPPPPPPPFRGARGGRSGGGPPNGRGGPGGGMVGGGGHRPHEGPGGGMGNSSGHRPHEGPGGGMGSGHRPHEGPGGSMGGGGGHRPHEGPGGGISGGSGHRPHEGPGGGMGAGGGHRPHEGPGGSMGGSGGHRPHEGPGHGGPHGHRPHDVPGHRGHDHRGPPPHEHRGHDGPGHGGGGHRGHDGGHSHGGDMSNRPVCRHFMMKGNCRYENNCAFYHPGVNGPPLP
Turning to B2, the binding entry in experiment [2], in experiment [3] and in experiment [4] was “binds” throughout.

B3: TOX4 (protein, UniProt O94842 1-621)
chain: MEFPGGNDNYLTITGPSHPFLSGAETFHTPSLGDEEFEIPPISLDSDPSLAVSDVVGHFDDLADPSSSQDGSFSAQYGVQTLDMPVGMTHGLMEQGGGLLSGGLTMDLDHSIGTQYSANPPVTIDVPMTDMTSGLMGHSQLTTIDQSELSSQLGLSLGGGTILPPAQSPEDRLSTTPSPTSSLHEDGVEDFRRQLPSQKTVVVEAGKKQKAPKKRKKKDPNEPQKPVSAYALFFRDTQAAIKGQNPNATFGEVSKIVASMWDSLGEEQKQVYKRKTEAAKKEYLKALAAYKDNQECQATVETVELDPAPPSQTPSPPPMATVDPASPAPASIEPPALSPSIVVNSTLSSYVANQASSGAGGQPNITKLIITKQMLPSSITMSQGGMVTVIPATVVTSRGLQLGQTSTATIQPSQQAQIVTRSVLQAAAAAAAAASMQLPPPRLQPPPLQQMPQPPTQQQVTILQQPPPLQAMQQPPPQKVRINLQQQPPPLQIKSVPLPTLKMQTTLVPPTVESSPERPMNNSPEAHTVEAPSPETICEMITDVVPEVESPSQMDVELVSGSPVALSPQPRCVRSGCENPPIVSKDWDNEYCSNECVVKHCRDVFLAWVASRNSNTVVFVK
In the case of B3, the binding result in experiment [2], in experiment [3] and in experiment [4] was “binds” throughout.
